Measured values reported in PubChem BioAssay AID2417 (National Center for Advancing Translational Sciences (NCATS), 2010).
About 4,300 (3.1%) of roughly 140,000 compounds were called active. Inconclusive results, whose numbers are uncertain, are shown with a selection of clear calls.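 Rule for the calls: active = readout at or below -70, meaning at least 70% loss of cells showing the perinucleolar compartment, a nuclear body marking cancer cells; inconclusive = readout between -30 and a set limit; inactive = the rest.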

assay: High Content Assay for Compounds that inhibit the Assembly of the Perinucleolar Compartment; conditions: PC3M PTB-GFP, PNC prevalence imaging, 16 h; at 10 µM; stronger effect = lower value;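 note: plate controls were DMSO wells for no effect and camptothecin positive control wells for full effect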
How it was run: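 Read-out is percentage of cells bearing a perinucleolar compartment, from automated 20x imaging of fixed, Hoechst-stained PC3M PTB-GFP cells. Cells were seeded 4 h, then exposed 16 h to compound (23 nl of library stock) in duplicate plates.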

Row | Structure (SMILES) | activity change (PNC), negative = inhibition
1 | CC1(C)Cc2nc3sc4c(N(CCO)CCO)ncnc4c3cc2CO1 | inactive: 20.1%
2 | Cc1ccc(NC(=O)c2ccccc2N(C)S(=O)(=O)c2ccccc2)c(C)c1 | inactive: -25.3%
3 | Cc1c(Cl)ccc2c1NC(=O)[C@]21N[C@@H](CCC(N)=O)[C@H]2C(=O)N(c3ccc(F)cc3)C(=O)[C@H]21 | inactive: -21%
4 | CCOC(=O)N1CCN(C2CC(=O)N(c3ccc(C)cc3)C2=O)CC1 (stereo not given) | inconclusive: -44%
5 | COc1cccc(C2C(C#N)=C(N)Oc3c2oc(CO)cc3=O)c1OC (stereo not given) | inconclusive: -30.3%
6 | COc1cc(/C=C/c2nnc3c4ccccc4ncn23)cc(OC)c1OC | inactive: 48.3%
7 | CCOC(=O)N1CCC(N2CCN(c3cc(C)ccc3C)CC2)CC1 | inconclusive: -58.4%
8 | O=C(O)c1cc(N/N=C/c2ccc(N3CCOCC3)s2)ccc1Cl | inactive: 38%
9 | CCCCOc1ccc(-c2nc(-c3cccnc3)no2)cc1 | inconclusive: -47.2%
10 | Cc1ccc(NC(=O)c2noc3c2CCc2ccccc2-3)cc1 | inconclusive: -48.5%
11 | COC(=O)/C(=C\Nc1ccc(Cl)c2ccccc12)c1ncc(C(F)(F)F)cc1Cl | inconclusive: -36.9%
12 | Cc1ccc(S(=O)(=O)Cc2ccc(C(=O)N3CCN(c4cc(C)ccc4C)CC3)o2)cc1 | inconclusive: -57.6%
13 | CC1CCN(c2ccccc2NC(=S)NC(=O)c2ccc(-c3cccc([N+](=O)[O-])c3)o2)CC1 | inconclusive: -43.3%
14 | CN1CC=C2C(C#N)=C(N)C(C#N)(C#N)C(Cc3ccccc3)C2C1 (stereo not given) | active: -119%
15 | CCCCOCC1CN(c2ccccc2)C(=O)CS1 (stereo not given) | inactive: 4.5%
16 | CNC(=S)N/N=C(\C)c1ccc(C(C)(C)C)cc1 | inconclusive: -49.1%
17 | O=C(NC1=NCCS1)c1cccc(S(=O)(=O)N2CCCCC2)c1 | inconclusive: -32.8%
18 | CCSc1oc(-c2ccccc2)nc1S(=O)(=O)c1ccccc1 | inconclusive: -70.7%
19 | Cc1nn(-c2ccccc2)c(Cl)c1C(=O)Nc1nnc(C2CCCC2)s1 | active: -85.3%
20 | CCN1C(=O)C(O)(C2COC(C)(C)CC2=O)c2cc(Br)ccc21 (stereo not given) | inconclusive: -34.9%
21 | COc1ccc2[nH]c3nc(SCc4nnc(-c5ccccc5)o4)nnc3c2c1 | inconclusive: -32.4%
22 | COc1cc(/C=C2\SC(=S)N(CC(=O)Nc3ccccn3)C2=O)cc(OC)c1OC | inactive: -6.35%
23 | COc1ccc(-c2[nH]c(-c3cccc(OC)c3)nc2SCC(=O)NCc2ccco2)cc1 | inconclusive: -43.3%

Ordered by formula weight (smallest number first): part of the list above
Row | Structure (SMILES) | activity change (PNC), negative = inhibition
9 | CCCCOc1ccc(-c2nc(-c3cccnc3)no2)cc1 | inconclusive: -47.2%
4 | CCOC(=O)N1CCN(C2CC(=O)N(c3ccc(C)cc3)C2=O)CC1 (stereo not given) | inconclusive: -44%
23 | COc1ccc(-c2[nH]c(-c3cccc(OC)c3)nc2SCC(=O)NCc2ccco2)cc1 | inconclusive: -43.3%

(cont.)

Row | Structure (SMILES) | activity change (PNC), negative = inhibition
24 | CCc1cc(C(c2ccncc2)N2CCN(C)CC2)c(NC(=O)c2ccccc2)s1 (stereo not given) | inconclusive: -32.3%
25 | CCCCOCCCNS(=O)(=O)c1ccccc1 | inconclusive: -38.5%
26 | COc1cc(/C=N/NC(=O)CCN2CCN(c3ccccc3)CC2)cc(OC)c1OC | active: -86.3%
27 | COCCCNC(=O)CN(c1ccc(Cl)c(Cl)c1)S(C)(=O)=O | inconclusive: -50.6%
28 | Cc1nc(Cl)c(C#N)cc1-c1ccccc1 | inconclusive: -37.2%
29 | Cc1cc(OCC(=O)N2CCCC2)ccc1Cl | inconclusive: -39.9%
30 | CCN1C(=O)C2(C(C#N)=C(N)Oc3n[nH]c(C(C)C)c32)c2ccccc21 (stereo not given) | inconclusive: -80%
31 | CCOC(=O)c1c(-c2ccccc2Cl)csc1NC(=O)c1cc(S(=O)(=O)N2CCOCC2)ccc1C | inactive: -10.8%
32 | CCNC(=O)/C(C#N)=C/c1c(N2CC(C)OC(C)C2)nc2ccccn2c1=O (stereo not given) | inconclusive: -50.5%
33 | Cc1ccc(C(=O)N2NC(c3ccc(F)cc3)C3C(=O)N(c4ccc(C)c(C)c4)C(=O)C32)cc1 (stereo not given) | active: -90.4%
34 | COC(=O)c1sc2nc(C)c([N+](=O)[O-])c(C)c2c1N | inactive: -13.1%
35 | CC1CC2(CC(C)(C(=O)CSc3n[nH]c(-c4ccccc4Cl)n3)OC2=O)C(=O)O1 (stereo not given) | inactive: -19.6%
36 | Cc1cccc(NC(=O)c2cc(Cl)nc3ccccc23)c1 | inconclusive: -59.8%
37 | COc1ccc(C(c2c(O)nc(SC)n(C)c2=O)c2c(O)nc(SC)n(C)c2=O)cc1O | inconclusive: -44.5%
38 | CCC(C)(C)NC(=O)C(OC(=O)c1ccco1)c1ccccc1OC (stereo not given) | inconclusive: -40.3%
39 | Cc1ccccc1CCN(C(=O)Cn1nnc2ccccc21)C(C(=O)NC(C)(C)C)c1ccsc1 (stereo not given) | inconclusive: -54.5%
40 | O=c1nc(NCc2ccccc2Cl)cn[nH]1 | inconclusive: -50.7%
41 | O=C(CS(=O)(=O)Cc1ccccc1)Nc1nc2c(s1)CCCC2 | inconclusive: -37.9%
42 | COc1ccccc1NC(=O)CN1CCN(CC(=O)Nc2cc(NC(C)=O)ccc2OC)CC1 | inconclusive: -37.6%
43 | Cc1nc(-c2cnn(-c3ccccc3)c2)c2cc(C)oc2n1 | inconclusive: -61.4%
44 | CN(C)S(=O)(=O)c1ccc(C(=O)Nc2ccc(CN3CCCC3)cc2)cc1 | inactive: 19.7%
45 | O=c1[nH]c(CS(=O)(=O)c2ccccc2)nc2ccccc12 | inconclusive: -58.9%
46 | Cc1cccc(N2CCN(C(=O)c3ccc(N4CCCC4=O)cc3)CC2)c1C | inconclusive: -31.4%

Row | Structure (SMILES) | activity change (PNC), negative = inhibition
47 | C=CCn1c(-c2csc(-c3ccc(Cl)cc3)n2)n[nH]c1=S | inconclusive: -45.5%
48 | COc1cccc(NC(=O)Cn2c(=O)n(CC3CCCO3)c(=O)c3ccccc32)c1 (stereo not given) | inactive: -16%
49 | CCOCCCNc1ncnc2c1[nH]c1ccccc12 | inactive: 30.8%
50 | COc1ccc2c(c1)c1nc3ccccc3nc1n2CCn1c(=O)oc2ccccc21 | inconclusive: -79.3%
51 | Cn1nccc1C(=O)Nn1cnnc1 | inactive: 9.81%
52 | COc1cc(C2C(C#N)=C(N)Oc3n[nH]c(C)c32)ccc1OC(=O)c1ccccc1 (stereo not given) | inconclusive: -31.4%
53 | O=C(CN1CCOCC1)Nc1ccccc1-c1ccccc1 | inactive: -19.9%
54 | Cc1cc(C)n(C(CC(=O)N2CCc3ccccc3C2)C(=O)O)n1 (stereo not given) | active: -127%
55 | CCCOc1cccc(C(=O)NC(=S)Nc2cccc(NC(=O)c3ccccc3Cl)c2)c1 | inconclusive: -45.7%
56 | CCN(C(C)=O)c1cccc2ccccc12 | inconclusive: -42%
57 | O=C(Cn1[nH]c(=O)c2ccccc2c1=O)NC1CCCCCC1 | active: -85.7%
58 | CC/C(=N\NC(=O)c1cc(C)nc2ccccc12)c1ccc(C)s1 | inconclusive: -76.1%
59 | Cn1cc(CNC(=O)C2CCCCC2)cn1 | inconclusive: -46.1%
60 | N#C/C(=C/C=C/c1ccccc1)C(=O)Nc1ccccc1 | inconclusive: -40.4%
61 | O=C(Oc1ccccc1)N1CCN(c2ccc(F)cc2)CC1 | inconclusive: -61.4%
62 | O=C(CSc1nnc(-c2ccccc2)n1-c1ccccc1)N1c2ccccc2Sc2ccccc21 | inconclusive: -36.7%
63 | Cc1occc1C(=O)Nc1ccc2c(c1)OCCO2 | inactive: -8.67%
64 | COCCNC(=O)/C(C#N)=C/c1cccc(NC(=O)c2ccccc2Cl)c1 | inactive: 23.9%
65 | Cn1c(Sc2ccc(Br)cc2)c(C=O)c2ccccc21 | inactive: -26.5%
66 | O=C(CC1SC(=O)N(c2ccccc2)C1=O)Nc1ccccc1 (stereo not given) | inconclusive: -39.8%
67 | COc1ccccc1N1CCN(C(=O)c2cc(-c3ccc(Cl)cc3)on2)CC1 | inconclusive: -45.9%
68 | COCCN=c1scc(-c2ccccc2)n1/N=C/c1c[nH]c2ccccc12 | inactive: -19.2%
69 | Cc1cccc(C(=O)Nc2sc(C)c(-c3ccccc3)c2C#N)c1 | inactive: 36.2%

Row | Structure (SMILES) | activity change (PNC), negative = inhibition
70 | Cc1cc2ccccc2nc1SCC(=O)Nc1nc(-c2ccccc2)cs1 | inconclusive: -50.7%
71 | Cc1ccc(-n2c(SCc3cn4ccsc4n3)nc3ccccc3c2=O)cc1 | inactive: -24.3%
72 | CCOC(=O)c1ccc(NC(=S)NC(=O)COc2ccccc2)cc1 | inactive: 33.2%
73 | COc1ccccc1N1CCN(c2nc3ccccn3c(=O)c2C=O)CC1 | inactive: 12.1%
74 | Cc1cc(NC(=O)c2ccco2)ccc1NC(=O)Cc1cccs1 | inconclusive: -71.1%
75 | O=C(CN1CCCCC1)Nc1cccc2c1OCO2 | inconclusive: -31.9%
76 | CC1CN(S(=O)(=O)c2cccc(C(=O)Nc3ccc4c(c3)CCC4)c2)CC(C)O1 (stereo not given) | inactive: 233%
77 | COc1ccc(NC(C)=O)cc1NC(=O)CN1CCN(C(=O)c2ccco2)CC1 | inactive: 7.38%
78 | Cc1nn(CC(=O)Nc2sc3c(c2C#N)CCC(C(C)(C)C)C3)c(C)c1[N+](=O)[O-] (stereo not given) | inconclusive: -41.5%
79 | CCOC(=O)c1c(-c2cccs2)csc1NC(=O)CC(C)C | inactive: 12.1%
80 | Cc1cccc(NC(NC(=O)Cc2ccccc2)C(Cl)(Cl)Cl)c1 (stereo not given) | inconclusive: -62.4%
81 | N#CC1=C(SCC(N)=O)NC(=O)CC1c1ccccc1Cl (stereo not given) | inactive: 8.81%
82 | Nc1ccnc(Oc2ccc(F)cc2)c1 | inactive: 1.44%
83 | O=C1c2cccc3cccc(c23)C(=O)N1OS(=O)(=O)c1ccccc1 | inconclusive: -46.8%
84 | CCS(=O)(=O)n1nc(C(=O)N2CCOCC2)nc1N | inconclusive: -30.6%
85 | CC(=O)Nc1cccc(NC(=O)CSc2nnnn2C(C)C)c1 | inconclusive: -37.3%
86 | CN(Cc1cccs1)C(=O)COc1ccc(-c2nnco2)cc1 | inactive: -29.8%
87 | CCN(CC)S(=O)(=O)c1cccc(C(=O)N/N=C/c2c(C)nn(-c3ccccc3)c2Cl)c1 | inconclusive: -44.4%
88 | Cc1ccc(NC(=O)Nc2ccc3oc(C)nc3c2)cc1 | inconclusive: -34.6%
89 | CNC(=O)c1ccc(-c2ccc(OC)cc2)s1 | inconclusive: -33%
90 | CC(C)CCNC(=O)c1sc2ccc(S(=O)(=O)N3CCCCC3)cc2c1N | inconclusive: -36.6%
